Reference: publication PMC6755124
No constants are given. Whether binding was seen depends on the method and setting. Binding seen in cells or lysates may run through a third protein. Here binding means that the protein was enriched with, or labelled near, the bait; the list need not be complete. Tags and fused reporters may be left off the sequences shown.

Chains of the proteins cited; added tags and fusions are not shown.
UniProt A4D1E9: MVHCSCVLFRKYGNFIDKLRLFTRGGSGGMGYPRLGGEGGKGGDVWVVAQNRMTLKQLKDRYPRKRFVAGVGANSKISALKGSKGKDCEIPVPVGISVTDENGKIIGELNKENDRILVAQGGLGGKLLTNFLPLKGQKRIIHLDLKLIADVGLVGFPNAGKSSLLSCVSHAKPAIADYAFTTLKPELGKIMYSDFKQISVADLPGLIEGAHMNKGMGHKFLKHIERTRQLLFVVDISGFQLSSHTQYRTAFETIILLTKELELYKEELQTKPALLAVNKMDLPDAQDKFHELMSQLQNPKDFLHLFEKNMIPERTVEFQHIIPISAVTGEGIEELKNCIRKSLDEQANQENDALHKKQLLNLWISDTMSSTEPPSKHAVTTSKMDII

T1: C6orf203::FLAG (C-terminal FLAG tagged C6orf203) (human) (UniProt Q9P0P8)
T1 sequence: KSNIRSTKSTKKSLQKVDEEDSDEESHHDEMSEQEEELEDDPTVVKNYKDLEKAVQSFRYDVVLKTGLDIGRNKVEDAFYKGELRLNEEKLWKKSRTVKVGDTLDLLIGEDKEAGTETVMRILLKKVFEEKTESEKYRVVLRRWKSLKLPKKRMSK

B1: RPUSD4 (protein, UniProt Q96CM3 16-377)
chain: NGQGCGSLFTLVSKPFCAAAAASTAINAQRLAEKLRAQKREQDTKKEPVSTNAVQRRVQEIVRFTRQLQRVHPNVLAKALTRGILHQDKNLVVINKPYGLPVHGGPGVQLCITDVLPILAKMLHGHKAEPLHLCHRLDKETTGVMVLAWDKDMAHQVQELFRTRQVVKKYWAITVHVPMPSAGVVDIPIVEKEAQGQQQHHKMTLSPSYRMDDGKMVKVRRSRNAQVAVTQYQVLSSTLSSALVELQPITGIKHQLRVHLSFGLDCPILGDHKYSDWNRLAPQKLSVGTLKKLGLEQSKARYIPLHLHARQLILPALGSGKEELNLVCKLPRFFVHSLHRLRLEMPNEDQNENNEAKCLGAQ
B2: C12orf65 (protein, UniProt Q9H3J6 36-166)
chain: IAVTPVQMAGKKDYPALLSLDENELEEQFVKGHGPGGQATNKTSNCVVLKHIPSGIVVKCHQTRSVDQNRKLARKILQEKVDVFYNGENSPVHKEKREAAKKKQERKKRAKETLEKKKLLKELWESSKKVH
B3: DHX30 (protein, UniProt Q7L2E3 1-1194)
chain: MFSLDSFRKDRAQHRQRQCKLPPPRLPPMCVNPTPGGTISRASRDLLKEFPQPKNLLNSVIGRALGISHAKDKLVYVHTNGPKKKKVTLHIKWPKSVEVEGYGSKKIDAERQAAAAACQLFKGWGLLGPRNELFDAAKYRVLADRFGSPADSWWRPEPTMPPTSWRQLNPESIRPGGPGGLSRSLGREEEEDEEEELEEGTIDVTDFLSMTQQDSHAPLRDSRGSSFEMTDDDSAIRALTQFPLPKNLLAKVIQIATSSSTAKNLMQFHTVGTKTKLSTLTLLWPCPMTFVAKGRRKAEAENKAAALACKKLKSLGLVDRNNEPLTHAMYNLASLRELGETQRRPCTIQVPEPILRKIETFLNHYPVESSWIAPELRLQSDDILPLGKDSGPLSDPITGKPYVPLLEAEEVRLSQSLLELWRRRGPVWQEAPQLPVDPHRDTILNAIEQHPVVVISGDTGCGKTTRIPQLLLERYVTEGRGARCNVIITQPRRISAVSVAQRVSHELGPSLRRNVGFQVRLESKPPSRGGALLFCTVGILLRKLQSNPSLEGVSHVIVDEVHERDVNTDFLLILLKGLQRLNPALRLVLMSATGDNERFSRYFGGCPVIKVPGFMYPVKEHYLEDILAKLGKHQYLHRHRHHESEDECALDLDLVTDLVLHIDARGEPGGILCFLPGWQEIKGVQQRLQEALGMHESKYLILPVHSNIPMMDQKAIFQQPPVGVRKIVLATNIAETSITINDIVHVVDSGLHKEERYDLKTKVSCLETVWVSRANVIQRRGRAGRCQSGFAYHLFPRSRLEKMVPFQVPEILRTPLENLVLQAKIHMPEKTAVEFLSKAVDSPNIKAVDEAVILLQEIGVLDQREYLTTLGQRLAHISTDPRLAKAIVLAAIFRCLHPLLVVVSCLTRDPFSSSLQNRAEVDKVKALLSHDSGSDHLAFVRAVAGWEEVLRWQDRSSRENYLEENLLYAPSLRFIHGLIKQFSENIYEAFLVGKPSDCTLASAQCNEYSEEEELVKGVLMAGLYPNLIQVRQGKVTRQGKFKPNSVTYRTKSGNILLHKSTINREATRLRSRWLTYFMAVKSNGSVFVRDSSQVHPLAVLLLTDGDVHIRDDGRRATISLSDSDLLRLEGDSRTVRLLKELRRALGRMVERSLRSELAALPPSVQEEHGQLLALLAELLRGPCGSFDVRKTADD
B4: TRMT10C (protein, UniProt Q7L0Y3 40-403)
chain: MSSKIPAVTYPKNESTPPSEELELDKWKTTMKSSVQEECVSTISSSKDEDPLAATREFIEMWRLLGREVPEHITEEELKTLMECVSNTAKKKYLKYLYTKEKVKKARQIKKEMKAAAREEAKNIKLLETTEEDKQKNFLFLRLWDRNMDIAMGWKGAQAMQFGQPLVFDMAYENYMKRKELQNTVSQLLESEGWNRRNVDPFHIYFCNLKIDGALHRELVKRYQEKWDKLLLTSTEKSHVDLFPKDSIIYLTADSPNVMTTFRHDKVYVIGSFVDKSMQPGTSLAKAKRLNLATECLPLDKYLQWEIGNKNLTLDQMIRILLCLKNNGNWQEALQFVPKRKHTGFLEISQHSQEFINRLKKAKT

These molecules were tested against T1, C6orf203::FLAG (C-terminal FLAG tagged C6orf203) (human) (assay: affinity purification with mass spectrometry; FLAG immunoprecipitation from mitochondrial lysate of HEK293T expressing C6orf203::FLAG; eluates analysed by label-free quantitative mass spectrometry (n = 3) against HEK293T without FLAG protein expression).

binding, binds:
GTPBP10 (from UniProt A4D1E9 1-387), B1, B2, B3, B4
